Laboratory results published in PubChem BioAssay AID256 (DTP/NCI, 2004).
The list is a part of this screen's results and no random one: it is rich in T/C values a quarter to a half above the control, in often repeated tests (any T/C) and in doses without a T/C. Further doses and runs are listed elsewhere. T/C is the treated group as % of the vehicle group. Some entries give survivors of the animals treated and no T/C: the source holds a T/C of zero for them, seemingly a mark for toxic or unscored doses. Some survivor counts are full or nearly so, which does not show that the dose was tolerated: the source hardly ever lists a survival T/C far under the control, and the zero likely stands for such cases as well. Counts of survivors are from the toxicity check (mostly the fifth day) where no day follows; animals may have died later. Schedule codes are those of the source, taken here to give the interval after Q, in days (D) or hours (H), and the number of doses after X. Some entries hold several experiments; the results are listed from low to high. Some schedules carry Z or #; the key to these is not given. Some structures stand for samples that the source files as different forms (salt, stereo form or complex); doses refer to the form tested. For survival time, the PubChem record calls one and a half times the control and up active, and a quarter to a half above the control has no call in these data; cut-offs in other NCI protocols can differ. Some T/C values carry the count of animals alive at the toxicity check (mostly the fifth day); where none is given, no animal had died by that day. Brackets with × count equal records among those shown.

Test system: CD2F1 mice, L1210 leukemia ip, survival T/C
Test: NCI In Vivo Anticancer Drug Screen. Data for tumor model L1210 Leukemia (intraperitoneal) in CD2F1 (CDF1) mice
Details: higher T/C = longer survival
In short: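 Implant tumor; dose compound or vehicle; measure endpoint in both groups; report treated divided by control.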

[1] = T/C endpoint: mean survival time, dose: 400.0 mg/kg/injection, schedule: Q04DX003 (ip), vehicle: saline with Tween-80
[2] = T/C endpoint: mean survival time, dose: 100.0 mg/kg/injection, schedule: Q04DX003 (ip), vehicle: saline with Tween-80
[3] = T/C endpoint: mean survival time, dose: 200.0 mg/kg/injection, schedule: Q04DX003 (ip), vehicle: saline with Tween-80
[4] = T/C endpoint: mean survival time, dose: 200.0 mg/kg/injection, schedule: Q01DX001 (ip), vehicle: saline with Tween-80
[5] = T/C endpoint: mean survival time, dose: 400.0 mg/kg/injection, schedule: Q01DX009 (ip), vehicle: saline with Tween-80
[6] = T/C endpoint: mean survival time, dose: 200.0 mg/kg/injection, schedule: Q01DX009 (ip), vehicle: saline with Tween-80
[7] = T/C endpoint: mean survival time, dose: 400.0 mg/kg/injection, schedule: Q01DX001 (ip), vehicle: saline with Tween-80
[8] = T/C endpoint: mean survival time, dose: 100.0 mg/kg/injection, schedule: Q01DX001 (ip), vehicle: saline with Tween-80
[9] = T/C endpoint: mean survival time, dose: 50.0 mg/kg/injection, schedule: Q01DX009 (ip), vehicle: saline with Tween-80
[10] = T/C endpoint: mean survival time, dose: 100.0 mg/kg/injection, schedule: Q01DX009 (ip), vehicle: saline with Tween-80

## Nc1ncnc2c1ncn2C1OC(COP(=O)(O)O)C(O)C1O (stereo not drawn)
T/C endpoint: mean survival time, dose: 165.0 mg/kg/injection, schedule: Q03HX024 (ip), vehicle: saline
  T/C: 125 % of control
T/C endpoint: mean survival time, dose: 250.0 mg/kg/injection, schedule: Q03HX024 (ip), vehicle: saline
  T/C: 131 and 139 % of control
T/C endpoint: mean survival time, dose: 375.0 mg/kg/injection, schedule: Q03HX024 (ip), vehicle: saline
  T/C: 140 % of control
T/C endpoint: mean survival time, dose: 400.0 mg/kg/injection, schedule: Q01DX009 (ip), vehicle: water
  T/C: 134 % of control
T/C endpoint: mean survival time, dose: 565.0 mg/kg/injection, schedule: Q03HX024 (ip), vehicle: saline
  T/C: 135 % of control
T/C endpoint: mean survival time, dose: 1600.0 mg/kg/injection, schedule: Q01DX009 (ip), vehicle: saline
  T/C: 130 % of control
T/C endpoint: median survival time, dose: 320.0 mg/kg/injection, schedule: Q01DX009 (ip), vehicle: water
  T/C: 125 and 127 % of control

## Clc1nnc(-c2ccccc2)s1
[1]
  survivor count: 2 of 6

## O=C(O)C(O)C(O)C1[O][Sb][O]C1C(=O)O (stereo not drawn)
T/C endpoint: median survival time, dose: 100.0 mg/kg/injection, schedule: Q01DX009 (ip), vehicle: saline
  survivor count: 0 of 6

## CC(C)(C)N[P+](Cc1ccccc1)(NC(C)(C)C)c1ccccc1
T/C endpoint: mean survival time, dose: 50.0 mg/kg/injection, schedule: Q04DX003 (ip), vehicle: saline with Tween-80
  survivor count: 2 of 6
[2]
  survivor count: 0 of 6
[3]
  survivor count: 0 of 6
[1]
  survivor count: 0 of 6

## O=[N+]([O-])c1ccc(C[Se]c2ncnc3c2ccn3C2OC(CO)C(O)C2O)cc1 (stereo not drawn)
T/C endpoint: mean survival time, dose: 100.0 mg/kg/injection, schedule: Q01DX005 (ip), vehicle: saline
  survivor count: 0 of 6
T/C endpoint: mean survival time, dose: 200.0 mg/kg/injection, schedule: Q01DX005 (ip), vehicle: saline
  survivor count: 0 of 6

## O=C1Nc2ccc3c4c(ccc1c24)CC3
[4]
  survivor count: 6 of 6

## C[N+](C)(CCCCCC[N+](C)(C)Cc1ccccc1)Cc1ccccc1
T/C endpoint: median survival time, dose: 25.0 mg/kg/injection, schedule: Q04DX003 (ip), vehicle: saline with Tween-80
  survivor count: 0 of 3
T/C endpoint: median survival time, dose: 50.0 mg/kg/injection, schedule: Q04DX003 (ip), vehicle: saline with Tween-80
  survivor count: 0 of 3
T/C endpoint: median survival time, dose: 100.0 mg/kg/injection, schedule: Q04DX003 (ip), vehicle: saline with Tween-80
  survivor count: 0 of 3
T/C endpoint: median survival time, dose: 200.0 mg/kg/injection, schedule: Q04DX003 (ip), vehicle: saline with Tween-80
  survivor count: 0 of 3

## Cc1ccc(C(=O)CCl)c(C)c1
T/C endpoint: mean survival time, dose: 100.0 mg/kg/injection, schedule: Q04DX003 (ip), vehicle: Klucel (hydroxypropylcellulose) (HPC)
  survivor count: 2 of 6

## O=C(CCl)OCc1ccc([N+](=O)[O-])o1
[1]
  survivor count: 3 of 6

## CCCCCNC(=O)Nc1cccc(Cl)c1C
[5]
  survivor count: 5 of 6

## COc1cc([NH-])c([NH-])cc1OC.[Cl][Pt+2][Cl]
T/C endpoint: mean survival time, dose: 320.0 mg/kg/injection, schedule: Q01DX009 (ip), vehicle: saline with Tween-80
  survivor count: 2 of 8

## CCCCCCCCC(=O)N1CCOCC1
[2]
  survivor count: 3 of 6
[6]
  survivor count: 0 of 6
[3]
  survivor count: 0 of 6
T/C endpoint: mean survival time, dose: 225.0 mg/kg/injection, schedule: Q04DX003 (ip), vehicle: saline
  survivor count: 6 of 6
T/C endpoint: mean survival time, dose: 335.0 mg/kg/injection, schedule: Q04DX003 (ip), vehicle: saline
  survivor count: 1 of 6
[5]
  survivor count: 0 of 6
[1]
  survivor count: 0 of 6

## Oc1ccccc1C=NC1CCCCC1N=Cc1ccccc1O.[Cu] (stereo not drawn)
T/C endpoint: mean survival time, dose: 50.0 mg/kg/injection, schedule: Q04DX002 (ip), vehicle: saline with Tween-80
  survivor count: 3 of 3

## Cc1nc2ccccc2[nH]1
[7]
  survivor count: 0 of 3

## CCCCNc1ccc2nnc(C)n2n1
T/C endpoint: median survival time, dose: 200.0 mg/kg/injection, schedule: Q01DX005 (ip), vehicle: DMSO
  survivor count: 2 of 6
T/C endpoint: median survival time, dose: 400.0 mg/kg/injection, schedule: Q01DX005 (ip), vehicle: DMSO
  survivor count: 0 of 6 and 1 of 6
T/C endpoint: median survival time, dose: 800.0 mg/kg/injection, schedule: Q01DX005 (ip), vehicle: DMSO
  survivor count: 0 of 6

## O.O=C(O)C(Cc1ccc(O)cc1)N=Cc1c(O)cncc1COP(=O)(O)O.[Cu] (stereo not drawn)
[8]
  survivor count: 1 of 3
[4]
  survivor count: 1 of 3
[7]
  survivor count: 1 of 3

## Clc1ccc(C2(c3ccncc3)OCCO2)cc1
T/C endpoint: mean survival time, dose: 400.0 mg/kg/injection, schedule: Q04DX003 (ip), vehicle: saline
  survivor count: 5 of 6

## [Cl][Pt+2][Cl].[NH-]C1CCCC1.[NH-]C1CCCC1
T/C endpoint: mean survival time, dose: 40.0 mg/kg/injection, schedule: Q01DX009 (ip), vehicle: Klucel (hydroxypropylcellulose) (HPC)
  T/C: 125 % of control
T/C endpoint: mean survival time, dose: 80.0 mg/kg/injection, schedule: Q01DX009 (ip), vehicle: Klucel (hydroxypropylcellulose) (HPC)
  T/C: 127 % of control
T/C endpoint: mean survival time, dose: 160.0 mg/kg/injection, schedule: Q01DX009 (ip), vehicle: Klucel (hydroxypropylcellulose) (HPC)
  T/C: 139 % of control

## CCC(=O)NCC(=O)O
[2]
  survivor count: 2 of 6
[3]
  survivor count: 3 of 6
[1]
  survivor count: 3 of 6

## O=C(Nc1ccc(C2=NCCN2)cc1)c1ccc(C(=O)Nc2ccc(C3=NCCN3)cc2)c(Cl)c1
T/C endpoint: mean survival time, dose: 3.12 mg/kg/injection, schedule: Q01DX009 (ip), vehicle: saline with Tween-80
  T/C: 103, 106, 116 % of control (2×)
T/C endpoint: mean survival time, dose: 3.13 mg/kg/injection, schedule: Q01DX009 (ip), vehicle: saline with Tween-80
  T/C: 138 % of control
T/C endpoint: mean survival time, dose: 6.25 mg/kg/injection, schedule: Q01DX009 (ip), vehicle: saline with Tween-80
  T/C: 108, 116, 123, 125, 148 % of control
T/C endpoint: mean survival time, dose: 10.0 mg/kg/injection, schedule: Q01DX009 (ip), vehicle: saline
  T/C: 131 % of control
T/C endpoint: mean survival time, dose: 12.0 mg/kg/injection, schedule: Q01DX008 (iv), vehicle: water
  survivor count: 0 of 7
T/C endpoint: mean survival time, dose: 12.5 mg/kg/injection, schedule: Q01DX009 (ip), vehicle: saline with Tween-80
  T/C: 119, 120, 124, 132 % of control
T/C endpoint: mean survival time, dose: 18.0 mg/kg/injection, schedule: Q01DX008 (iv), vehicle: water
  survivor count: 0 of 7
T/C endpoint: mean survival time, dose: 25.0 mg/kg/injection, schedule: Q01DX009 (ip), vehicle: saline with Tween-80
  T/C: 146, 153 [5 of 6 alive], 154, 176 % of control
[9]
  T/C: 198 and 250 % of control
  survivor count: 0 of 6 and 2 of 6
[10]
  survivor count: 0 of 6 and 2 of 3
[6]
  survivor count: 1 of 3
T/C endpoint: median survival time, dose: 20.0 mg/kg/injection, schedule: Q04DX003 (ip), vehicle: saline with Tween-80
  T/C: 126 % of control [6 of 7 alive]

## O=P(OCc1ccccc1)(N(CCCl)CCCl)N1CCCC1 (stereo not drawn)
T/C endpoint: mean survival time, dose: 256.0 mg/kg/injection, schedule: Q01DX Z (ip), vehicle: saline
  survivor count: 2 of 6
T/C endpoint: mean survival time, dose: 512.0 mg/kg/injection, schedule: Q01DX Z (ip), vehicle: saline
  survivor count: 0 of 6

## NC(=O)NC(=O)c1cccc([N+](=O)[O-])c1
[5]
  survivor count: 2 of 6
[1]
  survivor count: 6 of 6

## COc1ccc2c(c1)CCN1C2CCN2CCCC21 (stereo not drawn)
[1]
  survivor count: 6 of 6

## CC(=O)OC/C(=N\Nc1ccc([N+](=O)[O-])cc1[N+](=O)[O-])c1ccccc1
T/C endpoint: mean survival time, dose: 12.5 mg/kg/injection, schedule: Q01DX001 (ip), vehicle: saline with Tween-80
  survivor count: 6 of 6
[4]
  survivor count: 6 of 6

## O=C(N/N=C(/C(=N/NC(=O)c1ccccc1)c1ccccc1)c1ccccc1)c1ccccc1
[2]
  survivor count: 6 of 6

## COCC1OC(OC(=O)c2ccccc2)C(OC(=O)c2ccccc2)C(OC(=O)c2ccccc2)C1OC (stereo not drawn)
[10]
  survivor count: 3 of 3

## CN(C)c1ccc(/C=N/NC(=O)c2ccccc2N)c(Cl)c1
[5]
  survivor count: 6 of 6

## COc1ccc(C(O)(c2ccccc2)C(OC(=O)CCl)c2ccccc2)cc1 (stereo not drawn)
[8]
  survivor count: 6 of 6

## O=S(=O)(O)c1ccccc1O
T/C endpoint: mean survival time, dose: 200.0 mg/kg/injection, schedule: Q01DX009 (ip), vehicle: saline
  survivor count: 0 of 6
T/C endpoint: mean survival time, dose: 400.0 mg/kg/injection, schedule: Q01DX009 (ip), vehicle: saline
  survivor count: 0 of 6

## O=C(COc1ccc(Cl)c(Cl)c1)NCCc1cc[n+](Cc2ccc(Cl)cc2S(=O)(=O)F)cc1
[7]
  survivor count: 0 of 6
